Patent publication US20160244529A1 (ROTTAPHARM BIOTECH S R L, published 2016)
Results are given in words; binding and its absence hold for the method and conditions named. Some results given as binding are weak or reduced against the parent protein; the word gives no strength.

Amino acid sequences for entries named in this document (tags omitted). Residues count along the entry.
UniProt P04629, residues 33-423: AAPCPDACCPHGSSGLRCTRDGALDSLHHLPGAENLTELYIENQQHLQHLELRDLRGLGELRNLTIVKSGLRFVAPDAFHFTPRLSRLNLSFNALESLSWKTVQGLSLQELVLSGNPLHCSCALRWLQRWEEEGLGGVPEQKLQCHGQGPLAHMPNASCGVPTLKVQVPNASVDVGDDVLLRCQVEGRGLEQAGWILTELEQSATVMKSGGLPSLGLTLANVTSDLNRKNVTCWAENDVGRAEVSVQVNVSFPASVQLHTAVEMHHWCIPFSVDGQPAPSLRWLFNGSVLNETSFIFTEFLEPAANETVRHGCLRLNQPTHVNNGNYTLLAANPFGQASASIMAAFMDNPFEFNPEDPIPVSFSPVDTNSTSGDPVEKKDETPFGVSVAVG
UniProt Q16288, residues 32-429: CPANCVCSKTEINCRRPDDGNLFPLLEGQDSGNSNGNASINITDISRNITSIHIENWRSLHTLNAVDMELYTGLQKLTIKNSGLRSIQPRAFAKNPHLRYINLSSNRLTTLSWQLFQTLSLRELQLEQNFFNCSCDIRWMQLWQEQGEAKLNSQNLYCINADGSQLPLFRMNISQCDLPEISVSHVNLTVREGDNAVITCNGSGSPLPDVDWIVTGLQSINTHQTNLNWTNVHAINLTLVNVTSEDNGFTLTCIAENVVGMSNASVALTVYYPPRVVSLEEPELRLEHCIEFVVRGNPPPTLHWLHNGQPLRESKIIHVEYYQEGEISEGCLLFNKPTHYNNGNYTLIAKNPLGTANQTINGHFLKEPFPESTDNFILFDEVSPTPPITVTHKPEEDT
UniProt Q16620, residues 32-430: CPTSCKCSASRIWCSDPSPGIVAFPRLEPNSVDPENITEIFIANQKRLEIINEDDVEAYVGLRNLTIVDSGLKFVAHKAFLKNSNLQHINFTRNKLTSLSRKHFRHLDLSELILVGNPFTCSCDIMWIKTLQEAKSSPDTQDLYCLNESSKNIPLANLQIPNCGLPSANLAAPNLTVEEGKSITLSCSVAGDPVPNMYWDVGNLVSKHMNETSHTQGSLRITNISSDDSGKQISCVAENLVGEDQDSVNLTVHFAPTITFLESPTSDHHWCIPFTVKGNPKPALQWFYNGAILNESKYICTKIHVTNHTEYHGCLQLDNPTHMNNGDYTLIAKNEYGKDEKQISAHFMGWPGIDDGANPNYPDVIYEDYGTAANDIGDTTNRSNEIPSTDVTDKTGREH

Tests used:
[1] = target: human TrkA immunoadhesin (human; Camelus dromedarius) (UniProt P04629); experiment: ELISA, coated hTrkA-Fc, scFv at 50 and 5 ug/mL, OD 450 nm
[2] = target: human TrkA immunoadhesin (human; Camelus dromedarius) (UniProt P04629); experiment: specificity ELISA, antigens coated at 2 µg/mL, scFv at 50 ug/mL (upper panel) and 5 ug/mL (lower panel), OD 450 nm
[3] = target: human TrkA immunoadhesin (human; Camelus dromedarius) (UniProt P04629); experiment: ELISA on coated hTrkA-Fc
[4] = target: T1, human TrkC immunoadhesin (human; Camelus dromedarius, UniProt Q16288 32-429); experiment: ELISA on coated immunoadhesin
T1 construct: extracellular domain; also called hTrkC-Fc; TrkC immunoadhesins; not shown: Fc portion (immunoglobulin heavy chain constant region) of IgG2a camel antibody (Camelus dromedarius)

[5] = target: T1, human TrkC immunoadhesin; experiment: specificity ELISA, antigens coated at 2 µg/mL, scFv at 50 ug/mL (upper panel) and 5 ug/mL (lower panel), OD 450 nm
Method: (§1) FIG. 3. Specificity ELISA of isolated anti-TrkA scFvs versus human TrkA immunoadhesin (hTrkA-Fc), human TrkB immunoadhesins (hTrkB-Fc), human TrkC immunoadhesins (hTrkC-Fc) and human p75 immunoadhesins (hp75-Fc). Human antigens were coated at 2 μg/mL. Anti-TrkA scFvs were used at 50 μg/mL (upper panel) and/or 5 μg/mL (lower panel). The mean absorbance at 450 nm of the experiments performed in duplicate wells is shown with SD indicated by the bars.

[6] = target: T2, human TrkB immunoadhesin (human; Camelus dromedarius, UniProt Q16620 32-430); experiment: ELISA on coated immunoadhesin
T2 construct: extracellular domain; also called hTrkB-Fc; TrkB immunoadhesins; not shown: Fc portion (immunoglobulin heavy chain constant region) of IgG2a camel antibody (Camelus dromedarius)

[7] = target: T2, human TrkB immunoadhesin; experiment: specificity ELISA, antigens coated at 2 µg/mL, scFv at 50 ug/mL (upper panel) and 5 ug/mL (lower panel), OD 450 nm
Method: as §1

[8] = target: human TrkA immunoadhesin (human; Camelus dromedarius) (UniProt P04629); experiment: specificity ELISA, hTrkA-Fc coated at 2 µg/mL, mAb 20-0.02 ug/mL, OD 450 nm
[9] = target: human TrkA immunoadhesin (human; Camelus dromedarius) (UniProt P04629); experiment: ELISA on coated hTrkA-Fc, antibody 20 µg/mL-0.02 µg/mL

Measured: binding

B1: anti-TrkA scFv CRB0022 (scFv)
scFv: DIVLTQSPALMSASPGEKVTMTCSASSSVSYMYWYQQKPRSSPKPWIYLTSNLASGVPARFSGSGSGTSYSLTISSMEAEDAATYYCQQWSSNPYTFGGRTRLEIKPSGGSTSGSGKPGSGEDSSGAQVQLQQSGAELVKPGASVELSCTASGFNIKDTYMHWVKQRPEQGLEWIGGIDPANGNTIYVPKFQGKATITADTSSNTAYLQLSSLTSEDTAVYYCARGGYDFDYAMDYWGQGTSVTVSS
notes: From mSPLINT selection
binds: [1] | [2] | [3]

B2: anti-TrkA scFv CRB0036 (scFv)
scFv: DIVMTQAAPSVPVTPGESVSISCRSSKSLLHSSGITSLYWYLQRPGQSPQLPIYRMSSLASGVPDRFSVSGSGTAFTLRISRVEAEDVGVYYCMQHLEYPLTFGAGTKLELKRSGGSTSGSGKPGSGEGSSGTQVQLQQSGAELLKPGASVKISCKATGYTFSNYWIEWVKQRPGHGLEWIGEILPGSGSAHYSEKFKDKATFTADTSSNTAYMQLSSLTSEDSAVYFCTRSPPNPGYWGQGTSVTVSS
notes: From mSPLINT selection
binds: [1] | [4] | [2] | [5] | [3]

B3: anti-TrkA scFv CRB0069 (scFv)
scFv: QPGLTQPPSASGTPGQRVTISCTGSSSNVGAGYTVHWYQQLPGTAPTLLIYDNNNRPSGVPDRFSGSRSGTSASLAITGLRAEDEADYYCQSYDRSRVYVFGTGTKLTVLSGGSTSGSGKPGSGEGSSGTQVQLQQSGPGLVKPSQTLSLTCAISGDSVSSNSAAWNWIRQSPSRGLERLGRTYYRSKWYNDYAESVKSRIIINSGTSKNQFSLHLNSVTPEDTAVYYCGRAKDGWYDAFDIWGQGTTVTVSS
notes: From hSPLINT_09 selection
binds: [1] | [6] | [4] | [2] | [7] | [5] | [3]

B4: anti-TrkA scFv CRB0072 (scFv)
scFv: DIQMTQSPISLSATVGDRVTITCRASQSIGRYLNWYQQKPGKAPKLLIYGASSLESGVPSRFSGSGSGTVFTLTISGLQPEDFATYCCQQSHSTAWTFGQGTKVEIKSGGSTSGSGKPGSGEGSSGTEVQLVETGGGLVQPGSSLRLSCATSGFTFINYGVHWVRQPPGKGLEWVASIWYEGSNEKYADSVKGRFTISRDNSRYTLHLQLNSLRAEDTADYYCVRDRGTGDYRNSRFYYGMDVWGQGTTVTVSS
notes: From hSPLINT_09 selection
binds: [1] | [2] | [3]

B5: anti-TrkA scFv CRB0084 (scFv)
scFv: QPVLTQPPSVSVAPRQTATITCGGNYIGSKSVHWYQQKPGQDPVLVVNDDSDRPSGIPERFSGSNSANTATLTISGVEAGDEADYYCQVWDSSTEPVVFGGGTKLTVLSGGSTSGSGKPGSGEGSSGTQVQLQQWGAGLLRPSETLSLTCTVSGGSFSDSYWTWIRQSPGKGLEWIGENNHRGSTNYSPTLRSRLSISIDSSKNQFSLKLSSVTAADTAVYYCARVPYRLRSRIFDVWGQGTMVTVSS
notes: From hSPLINT_09 selection
binds: [1] | [2] | [3]

B6: anti-TrkA scFv CRB0088 (scFv)
scFv: QPVLTQSPPASASLGASVKLTCTLSSGHSSYAIAWHQQQPEKGPRYLMKVNSDGSHNKGDGIPDRFSGSRSGAERYLTISSLHSEDEADYYCQTWGAGGVVFGGGTKLTVLSGGSTSGSGKPGSGEGSSGTEVQLLESGGGLVQPGGSLRLSCAASGFTFSDHYMDWVRQAPGKGLEWVGRIRNKANSYTTEYAASVKGRFTISRDDSKKTLYLQMTSLKTDDTALYYCARDLGASDAFDLWGQGTMVTVSS
notes: From hSPLINT_09 selection
binds: [1] | [2] | [3]

B7: anti-TrkA scFv CRB0089 (scFv)
scFv: QTVVTQEPSVSGAPGQRVTISCTGSSSIIGAGYEVHWYQHLPGTAPKLLIYDSINRPSGVPDRFSGSKSGTSASLAITGLQAEDEADYYCQSSAIFGGGTKLTVLSGGSTSGSGKPGSGEGSSGTQVQLQESGPGLVKPSQTLSLTCAISGDSVSSNSAAWNWIRQSPSRGLEWLGRTFHRSRWYNEYPVSVRSRITINPDTSNNQFTLQLNSVTPDDTAVYYCARAPVAGLTFDIWGQGTMVTVSS
notes: From hSPLINT_09 selection
binds: [1] | [2] | [3]

B8: CRB0089_IgG4 (antibody, V domains shown)
VH: QVQLQESGPGLVKPSQTLSLTCAISGDSVSSNSAAWNWIRQSPSRGLEWLGRTFHRSRWYNEYPVSVRSRITINPDTSNNQFTLQLNSVTPDDTAVYYCARAPVAGLTFDIWGQGTMVTVSS
VL: QTVVTQEPSVSGAPGQRVTISCTGSSSIIGAGYEVHWYQHLPGTAPKLLIYDSINRPSGVPDRFSGSKSGTSASLAITGLQAEDEADYYCQSSAIFGGGTKLTVL
notes: Whole human IgG4 made in CHO-S cells; also called mAb CRB0089_IgG4; anti-TrkA CRB0089_IgG4
binds: [8] | [3] | [9]
